Values from PubChem BioAssay AID686937 (Drosophila RNAi Screening Center, 2013)
The screen tested about 23,000 reagents; shown is an unselected part of those that have a named target and a result. 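Reduced-secretion tags in replicate 1 do not always agree with the z-scores; no criterion for assigning the tags was given.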 The numbers tell different reagents against one gene apart. Names joined by + are all predicted targets of the reagent. Not all columns of the deposit are shown. The record does not give: the amount of reagent.

- Assay: 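Genes whose loss weakens secretory pathway function in fly cells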 (primary screen)
- System: Drosophila S2 cells expressing secreted horseradish peroxidase
- Knock-down reagent: long dsRNA against Drosophila genes
- Duration: about 5.5 days (5 days dsRNA, then 12 h reporter induction)
- Treatment: reporter expression induced after 5 days of dsRNA, read 12 h later; inducer not stated
- Measured: 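After 5 days of dsRNA and 12 h of reporter induction, medium peroxidase read by chemiluminescence and scored as per-plate z-score; higher values mean more reporter released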
- Reading the numbers: z-score: higher = more reporter secreted into medium

The first 2 entries as a preview:
target | dsRNA no. | z-score, replicate 1 | z-score, replicate 2 | z-score, replicate 3
fs(2)ltoPP43 | 1 | -0.03 | 0 | –
14-3-3epsilon | 1 | 0.19 | -0.03 | –

The listing, repeating the preview:
target | dsRNA no. | z-score, replicate 1 | z-score, replicate 2 | z-score, replicate 3
fs(2)ltoPP43 | 1 | -0.03 | 0 | –
14-3-3epsilon | 1 | 0.19 | -0.03 | –
Nrx-1 | 1 | 0.26 | 0.28 | –
CG31463 | 1 | -0.31 | 0.24 | –
CG11035 | 1 | 0.35 | 0.47 | –
CG9471 | 1 | 0.15 | 0.17 | –
CG11656 | 1 | 0.12 | 0.28 | –
pigs | 1 | 0.35 | 0.69 | –
pigs | 2 | 0.38 | 0.18 | –
pigs | 3 | 0.23 | 0.4 | –
ctp | 1 | -0.28 | -1.05 | –
CG10344 | 1 | 0.43 | 0.47 | –
CG2224 | 1 | 0.18 | 0.33 | –
CG16953 | 1 | 0.45 | 0.45 | –
CG42850 (retired record) | 1 | -1.64 | -1.01 | –
Ufd4 | 1 | -0.13 | 0.03 | –
Prosap | 1 | 0.26 | 0.45 | –
Prosap | 2 | 0.22 | 0.32 | –
CG33286 | 1 | 0.22 | 0.34 | –
wdp | 1 | 0.21 | 0.17 | –
pins | 1 | 0.34 | 0.65 | –
CG31267 | 1 | 0.24 | 0.55 | –
CG5928 | 1 | 0.32 | 0.24 | 0.26
CG8677 + CG31626 | 1 | 0.36 | 0.21 | 0.58
CG14634 | 1 | 0.21 | 0.31 | –
Rip11 | 1 | 0.19 | 0.19 | –
InR | 1 | 0.46 | 0.64 | –
PlexB | 1 | 0.21 | 0.34 | –
CG12974 | 1 | 0.39 | 0.64 | –
Cpr30F | 1 | 0.52 | 0.46 | –
CG7582 | 1 | 0.4 | 0.5 | –
CG13771 | 1 | 0.14 | 0.04 | –
CG32590 | 1 | 0.33 | 0.31 | –
CG4582 | 1 | 0.2 | 0.34 | –
RhoGDI | 1 | 0.22 | 0.37 | –
rad50 | 1 | 0.23 | 0.18 | –
CG17570 | 1 | 0.63 | 0.34 | –
CG17570 | 2 | -0.52 | 0.04 | –
dpr6 | 1 | -4.28 | -5.05 | –
dpr6 | 2 | 0.41 | 0.14 | –
dpr6 | 3 | 0.76 | 0.27 | –
DUBAI | 1 | 0.5 | 0.52 | –
CG8180 | 1 | 0.36 | 0.58 | –
CG8180 | 2 | -0.89 | -0.51 | –
CG32376 | 1 | -0.11 | 0.48 | –
cta | 1 | 0.34 | 0.3 | –
CG7650 | 1 | 0.67 | 0.41 | -0.26
PGRP-SC1b | 1 | 0.37 | 0.42 | –
CG1441 | 1 | 0.35 | 0.39 | –
dx | 1 | 0.29 | 0.42 | –
CAH2 | 1 | 0.46 | 0.39 | –
Nepl18 | 1 | 0.27 | 0.39 | –
CG15035 | 1 | 0.19 | 0.47 | –
Lcp65Ac | 1 | 0.21 | 0.32 | –
CG14024 | 1 | 0.36 | 0.14 | –
CG14024 | 2 | 0.13 | 0.12 | –
